In the experiment the target is interleukin-1 receptor-associated kinase 1 (IRAK1) (mouse (endogenous in C57BL/6 spinal cord)) (UniProt Q62406). The experiment in a line: co-IP; lumbosacral spinal cord lysates (RIPA buffer) of EAE mice at peak disease (WT, IRAK-M-/-, AAV-CTL); anti-IRAK1 overnight at 4 °C, protein A/G beads 3 h, washed three times with RIPA buffer; western blot for IRAK1 and TRAF6.

Chains of the proteins cited; added tags and fusions are not shown.
UniProt Q62406: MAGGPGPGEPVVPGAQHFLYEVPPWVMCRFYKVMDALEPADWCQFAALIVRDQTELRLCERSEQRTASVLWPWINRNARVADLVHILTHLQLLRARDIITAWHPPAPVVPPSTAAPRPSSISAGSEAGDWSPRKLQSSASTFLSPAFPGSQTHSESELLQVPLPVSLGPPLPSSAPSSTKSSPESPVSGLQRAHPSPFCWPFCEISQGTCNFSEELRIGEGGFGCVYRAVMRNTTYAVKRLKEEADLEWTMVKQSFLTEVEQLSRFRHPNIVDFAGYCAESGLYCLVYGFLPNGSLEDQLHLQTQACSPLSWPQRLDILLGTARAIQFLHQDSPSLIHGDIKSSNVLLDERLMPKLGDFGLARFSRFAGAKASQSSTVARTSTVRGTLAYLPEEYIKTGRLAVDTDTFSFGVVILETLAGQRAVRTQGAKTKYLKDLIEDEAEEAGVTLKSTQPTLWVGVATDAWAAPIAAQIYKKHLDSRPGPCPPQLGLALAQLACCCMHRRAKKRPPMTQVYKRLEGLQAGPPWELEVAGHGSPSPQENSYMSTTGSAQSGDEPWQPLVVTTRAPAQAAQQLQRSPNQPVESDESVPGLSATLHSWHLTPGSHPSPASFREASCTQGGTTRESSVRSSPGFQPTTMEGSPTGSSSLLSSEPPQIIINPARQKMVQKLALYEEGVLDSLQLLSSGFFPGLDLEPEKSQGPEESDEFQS

Results are given in words; binding and its absence hold for the method and conditions named. In cells and extracts the contact can be indirect. Some results given as binding are weak or reduced against the parent protein; the word gives no strength.

B1: TNF receptor-associated factor 6 (TRAF6) (protein, UniProt P70196 1-530)
chain: MSLLNCENSCGSSQSSSDCCAAMAASCSAAVKDDSVSGSASTGNLSSSFMEEIQGYDVEFDPPLESKYECPICLMALREAVQTPCGHRFCKACIIKSIRDAGHKCPVDNEILLENQLFPDNFAKREILSLTVKCPNKGCLQKMELRHLEDHQVHCEFALVNCPQCQRPFQKCQVNTHIIEDCPRRQVSCVNCAVSMAYEEKEIHDQSCPLANIICEYCGTILIREQMPNHYDLDCPTAPIPCTFSVFGCHEKMQRNHLARHLQENTQLHMRLLAQAVHNVNLALRPCDAASPSRGCRPEDPNYEETIKQLESRLVRQDHQIRELTAKMETQSMYVGELKRTIRTLEDKVAEMEAQQCNGIYIWKIGNFGMHLKSQEEERPVVIHSPGFYTGRPGYKLCMRLHLQLPTAQRCANYISLFVHTMQGEYDSHLPWPFQGTIRLTILDQSEALIRQNHEEVMDAKPELLAFQRPTIPRNPKGFGYVTFMHLEALRQGTFIKDDTLLVRCEVSTRFDMGGLRKEGFQPRSTDAGV
Turning to B1, the binding entry was “binds”.
